The list shows a part of the results. Further columns of the screen follow, without active or inactive calls. Most of these compounds were active or inconclusive in the main read-out, so they are no random draw. Words in brackets tell the shape of the fitted curve; partial curves, single points and poor fits give uncertain potencies.

As a reminder, the AC50 is the midpoint of the concentration-response curve, whichever way the signal moves.

The assay is described as follows: qHTS Assay to Find Inhibitors of Chronic Active B-Cell Receptor Signaling. The conditions noted are these: ABC-DLBCL IkBa-CBG/CBR reporter, luminescence ratio (green luciferase fused to IkBa over red control in TMD8 lymphoma cells), 4 h. The procedure, abridged:
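Concentration-response series (up to 46 uM) were applied to TMD8 dual-reporter cells for 4 h at 37C with doxycycline. Green/red ratio, after filter-overlap correction, defined %Activity; red signal alone was normalised to basal cells and zero luminescence.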
In general terms: Quantitative high-throughput screening tests each substance at several concentrations.

[1] abbreviates: measured here: CBR red luminescence, cell number.
Where [2] appears, read: measured here: IkBa-CBG green luminescence.

For the compound `O=C(CNC(=S)N(Cc1ccccc1)Cc1cccs1)NCc1ccc(F)cc1`, under setting [1], the half-maximal activity concentration (AC50) was 11.2 µM [falling, partial curve, poor fit].

As for `COc1cc(CNC(C)c2ccccc2)cc(Br)c1OCc1ccc(F)cc1` (stereo not given), the AC50 under setting [1] is 25.1 µM [falling, single point].

In the case of `CCN(CC)S(=O)(=O)c1ccc2c(c1)N(CC(=O)NCc1ccccn1)C(=O)CO2`, the concentration at half-maximal activity (AC50) under setting [1] was 6.31 µM [rising, single point].

Regarding `COc1ccccc1CNC(=O)Cn1cc2c(n1)CCCC2`, the AC50 under setting [1] was 18.4 µM [rising, single point].

On to `O=C(C1CCCN(c2ncccn2)C1)N1CCc2ccccc21` (stereo not given), for which, under setting [1], the AC50 was 15.8 µM [rising, partial curve, poor fit].

On to `COc1ccc(/C=C/C(=O)Nc2ccccc2C(N)=O)cc1S(=O)(=O)N1CCOCC1`, for which the AC50 under setting [1] is 11.6 µM [falling, partial curve, poor fit].

In the case of `Cc1[nH]n(-c2ccccc2)c(=O)c1C=Nc1ccc(S(N)(=O)=O)cc1`, under setting [1], the AC50 was 3.55 µM [rising, single point].

Consider `O=C(O)c1cc(NCc2ccc(F)cc2)ccc1N1CCOCC1`, for which the AC50 under setting [1] is 0.731 µM [falling, partial curve, poor fit].

As to `COc1cc(NC(=O)COc2ccc(F)cc2)nc(OC)n1`, the AC50 under setting [1] is 2.82 µM [rising, partial curve, poor fit].

Regarding `Cc1nc(Nc2ccccc2)c2oc3ccc(Cl)cc3c2n1`, the AC50 under setting [1] is 8.91 µM [falling, partial curve].

For the compound `Cc1cc(NC(=O)COC(=O)c2ccccc2S(=O)(=O)N(C)c2ccccc2)no1`, the AC50 under setting [1] was 2.82 µM [falling, partial curve, poor fit].

With `O=C(CSc1nc2ccccc2[nH]1)N1CCCCC1`, the AC50 under setting [1] is 0.146 µM [rising, full curve].

As to `Cc1cc(C)c(C)c(S(=O)(=O)N2CCN(C(=O)C3CSC4(C)CCC(=O)N34)CC2)c1C` (stereo not given), under setting [1], the AC50 was 29.1 µM [rising, single point].

In the case of `CCCc1nnc(NC(=O)CCC(=O)NC2CCCC2)s1`, under setting [1], the AC50 is 0.708 µM [rising, full curve, poor fit].

In the case of `CC(C)(C)NC(=O)C(=O)NNC(=O)c1ccccc1`, the AC50 under setting [1] is 0.891 µM [rising, full curve, poor fit].

For the compound `COc1ccc(OC)c(C(=O)CSc2nnnn2C)c1`, under setting [1], the AC50 is 5.62 µM [falling, partial curve, poor fit].

For the compound `CCOc1ccccc1Nc1nnc(-c2cc3cc(OC)ccc3oc2=O)s1`, the half-maximal activity concentration (AC50) under setting [1] is 2.24 µM [falling, partial curve, poor fit].

As to `Fc1cccc(Cc2noc(CN3CCCN(C4Cc5ccccc5C4)CC3)n2)c1`, under setting [1], the AC50 was 35.5 µM [falling, single point].

For `O=C(NCc1ccc[n+](CCCCS(=O)(=O)[O-])c1)c1ccc(OC(F)F)cc1`, the concentration at half-maximal activity (AC50) under setting [1] is 12.6 µM [rising, partial curve, poor fit].

As for `COc1ccccc1-c1nn2c(C3COc4ccccc4O3)nnc2s1` (stereo not given), the half-maximal activity concentration (AC50) under setting [1] was 1.26 µM [rising, partial curve].

With `COc1cc(C(=O)NC(=S)Nc2ccccc2[N+](=O)[O-])cc(OC)c1OC`, the AC50 under setting [1] was 0.631 µM [rising, partial curve, poor fit].

On to `O=C(CC(SCCO)c1ccc(F)cc1)c1ccco1` (stereo not given), for which the AC50 under setting [1] was 17.8 µM [falling, single point].

On to `CCCCn1c(-c2csc(CC)c2)n[nH]c1=S`, for which, under setting [1], the AC50 is 20.6 µM [rising, single point].

As to `COc1ccc(CCC(C)Nc2ccccc2F)cc1` (stereo not given), under setting [1], the AC50 was 16.4 µM [rising, single point].

In the case of `CCc1nc(OCCN(C)C)c2oc3ccccc3c2n1`, under setting [1], the AC50 was 35.5 µM [falling, single point].

On to `COc1ccc(N(CC(=O)Nc2cc(C)on2)S(=O)(=O)c2cc(C)ccc2C)cc1`, for which the AC50 under setting [1] is 28.2 µM [falling, partial curve, poor fit].

Consider `NC(=O)c1ncc(C(F)(F)F)cc1Oc1ccc(C(F)(F)F)cc1`, for which the AC50 under setting [1] was 0.517 µM [falling, full curve, poor fit].

`COc1cc(C)ccc1OCCOc1ccccc1Cl`: under setting [1], the AC50 is 3.55 µM [rising, partial curve].

With `O=C(CC(c1ccco1)S(=O)(=O)c1ccccc1)c1ccccc1` (stereo not given), under setting [1], the AC50 was 11.2 µM [falling, single point].

For the compound `O=C(CCc1nnc2n(Cc3ccc(F)cc3)c(=O)c3ccccc3n12)NCCN1CCOCC1`, under setting [1], the half-maximal activity concentration (AC50) is 17.8 µM [falling, partial curve].

`Cc1ccc(CCC(=O)Nc2ccc(N(C)C)cc2)o1`: under setting [1], the AC50 is 14.1 µM [falling, partial curve, poor fit].

Consider `Cc1cc(C)cc(NS(=O)(=O)c2ccc3[nH]cc(C(=O)N4CCc5ccccc54)c(=O)c3c2)c1`, for which the AC50 under setting [2] is 29.1 µM [falling, single point].

Turning to `Cc1ccc(/C=N/NC(=O)CSc2nc3ccccc3n2Cc2ccc(Cl)cc2)o1`, under setting [1], the half-maximal activity concentration (AC50) was 20.6 µM [falling, partial curve].

On to `O=C(CCC1CCCCC1)NCc1cccnc1`, for which the AC50 under setting [1] is 3.16 µM [falling, single point].

On to `COc1ccc(NC(=O)Nc2cccc(F)c2)c(OC)c1`, for which, under setting [1], the AC50 is 35.5 µM [falling, single point].

In the case of `CCOC(=O)c1sc(N(Cc2ccccc2)C(=O)COC(=O)c2cnccn2)nc1C`, the concentration at half-maximal activity (AC50) under setting [1] was 6.31 µM [rising, single point].

Take `COCCCNc1nc2c(-c3cccc(C)c3)nnn2c2ccc(Cl)cc12`: under setting [1], the AC50 is 0.891 µM [falling, partial curve].

Regarding `O=C(CN1c2cccc3cccc(c23)S1(=O)=O)Nc1ccc(S(=O)(=O)N2CCOCC2)cc1`, the AC50 under setting [1] is 4.11 µM [rising, partial curve].

In the case of `CCOC(=O)C1(CCOc2ccccc2)CCN(Cc2ccc(C#CCCO)cc2)CC1`, the AC50 under setting [1] is 35.5 µM [falling, single point].

Turning to `CCCCN(C(=O)c1ccc(C#N)cc1)c1c(N)n(CCC)c(=O)[nH]c1=O`, the AC50 under setting [1] was 1.12 µM [falling, full curve, poor fit].

For `Cc1ccc(-n2nnnc2SCC(=O)N2CC(=O)Nc3ccccc32)cc1`, the half-maximal activity concentration (AC50) under setting [1] was 25.9 µM [rising, single point].

On to `CCOC(=O)C1CCN(C(=O)COc2cc(C)c(Br)cc2C)CC1`, for which the concentration at half-maximal activity (AC50) under setting [1] was 5.62 µM [falling, partial curve].

On to `Cc1nn(-c2ccccc2)c(Cl)c1C(=O)OCC(=O)NCCc1ccccc1`, for which the AC50 under setting [1] is 11.2 µM [falling, single point].

With `CC(OC(=O)/C=C/c1ccc2ccccc2n1)C(=O)Nc1ccc(S(N)(=O)=O)cc1` (stereo not given), the AC50 under setting [1] is 16.4 µM [falling, partial curve].

For `CCOC(=O)Cc1csc(NC(=O)Nc2cccc(OC)c2)n1`, the AC50 under setting [1] was 7.08 µM [falling, full curve, poor fit].

In the case of `O=C(CCC1CCCCC1)NCc1ccncc1`, the AC50 under setting [1] is 32.6 µM [rising, single point].

With `COc1cccc(CSc2nc3n(n2)C(CC(C)C)C(C(=O)Nc2ccccc2OC)=C(C)N3)c1` (stereo not given), the AC50 under setting [1] was 12.6 µM [falling, single point].

With `COc1cc(OC)cc(C(=O)N[C@H](C(=O)OCC(=O)Nc2sccc2C#N)C(C)C)c1`, the AC50 under setting [1] was 0.794 µM [rising, partial curve, poor fit].

For the compound `Cc1oncc1C(=O)Nc1ccc2ccccc2c1`, the AC50 under setting [1] is 12.6 µM [falling, partial curve].

Take `CC(OC(=O)c1cc(=O)[nH]c2ccccc12)c1ccccc1` (stereo not given): under setting [1], the AC50 was 14.6 µM [falling, single point].

For `CCN(CC)C(=O)C1CCN(S(=O)(=O)c2c(C)noc2/C=C/c2cccc(C)c2)CC1`, under setting [1], the AC50 was 7.08 µM [falling, full curve].

For `CCOc1ccccc1NC(=O)C(OC(=O)c1ccc(O)cc1)c1ccccc1` (stereo not given), the AC50 reads like this: under setting [1], 29.1 µM [falling, partial curve, poor fit]; under setting [2], 29.1 µM [rising, partial curve, poor fit].

Regarding `CCCSC(=S)NC1CCS(=O)(=O)C1` (stereo not given), the AC50 under setting [1] is 14.1 µM [falling, single point].

`Cc1nnc(-c2ccccc2)nc1N(C)C`: the AC50 under setting [1] was 0.251 µM [rising, full curve, poor fit].

With `CCCOc1ccc(-c2c(=O)n(OCc3ccc([N+](=O)[O-])cc3)c3ccccc3[n+]2[O-])cc1`, the AC50 under setting [1] was 32.6 µM [falling, partial curve, poor fit].

For the compound `Cn1cc(-c2ccc(Cl)cc2)cc(C#N)c1=O`, the AC50 under setting [1] was 7.08 µM [rising, partial curve, poor fit].

As to `CC(=O)Nc1ccc(S(=O)(=O)N(C)CC(=O)OCC(=O)NC(C)C23CC4CC(CC(C4)C2)C3)cc1` (stereo not given), the AC50 under setting [1] was 25.9 µM [rising, single point].

Consider `COc1ccc(N(C(=O)CCl)C(C)(C(=O)Nc2c(C)cccc2C)c2ccccn2)cc1` (stereo not given), for which the AC50 under setting [1] was 25.9 µM [falling, single point].

On to `CCn1cnc2sc(C(=O)N(Cc3ccc(N(C)C)cc3)Cc3ccco3)c(C)c2c1=O`, for which, under setting [1], the concentration at half-maximal activity (AC50) is 6.51 µM [rising, partial curve].

Regarding `C[C@H](NC(=O)c1nc[nH]c1C(=O)N[C@H](C)c1ccccc1)C(=O)OCc1ccccc1`, the AC50 under setting [1] is 25.1 µM [falling, single point].

As to `COC(=O)c1cc(NC(=O)Nc2ccccc2)ccc1Cl`, the AC50 under setting [1] is 29.1 µM [falling, single point].

Consider `CCN(CC)S(=O)(=O)c1ccc2oc(C(=O)NCc3ccc(C)cc3)c(C)c2c1`, for which the AC50 under setting [1] is 16.4 µM [rising, partial curve, poor fit].

For `CCC1CCCCN1CCNC(=O)c1[nH]c(C)c(C(C)=O)c1C` (stereo not given), the AC50 under setting [1] is 12.6 µM [falling, partial curve, poor fit].

In the case of `CCCC(=O)c1ccc(-c2ccccc2)cc1`, the AC50 under setting [1] was 7.31 µM [rising, partial curve].

The values are drawn from PubChem BioAssay AID493014 (National Center for Advancing Translational Sciences (NCATS), 2011).
